Measurements reported in PubChem BioAssay AID504764 (Drosophila RNAi Screening Center, 2011)
In all, the deposit lists about 22,000 reagents; this is an unselected part of those with a known target gene and a result. In the full data, 403 (1.9%) are marked active. 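Unnormalised raw counts per well; ratio z-scores behind the hit calls and whether each hit raises or lowers signal are not deposited.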 A plus sign joins genes that one reagent is predicted to hit. Not given: the amount of reagent.

Test: 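Knock-downs that raise or lower a Notch target reporter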 (primary screen)
Cells: Drosophila Kc167 cells
Knock-down reagent: long dsRNA against Drosophila genes
Duration: about 5 days (4 days dsRNA, then 24 h after transfection)
Challenge: transfection of constitutively active membrane-tethered Notch lacking the extracellular domain, read 24 h later
Measurement: 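Firefly luciferase from an E(spl)m3 reporter with active Notch, plus control-promoter and uninduced reporter wells for normalisation; unnormalised counts, duplicate wells a and b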
Reading the numbers: induced reporter light, run 1, well a and induced reporter light, run 1, well b: higher = more light from the Notch target reporter with active Notch; control promoter light, run 1, well a and control promoter light, run 1, well b: higher = more light from the viral control promoter (cell number, transfection, viability); uninduced reporter light, run 1, well a: higher = more light from the Notch target reporter without active Notch
Hit rule: 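Hit if the duplicate-averaged log2 ratio of induced to control-promoter light gives a plate-wise z beyond ±2, or induced to uninduced beyond ±1.8; weak-control or discordant-duplicate wells dropped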
Calls: active = modifier hit (raised or lowered Notch signal); inactive = not a hit

The opening 6 records, ahead of the listing:
| target | PubChem SID | induced reporter light, run 1, well a | induced reporter light, run 1, well b | control promoter light, run 1, well a | control promoter light, run 1, well b | uninduced reporter light, run 1, well a | Call |
| --- | --- | --- | --- | --- | --- | --- | --- |
| mRpL14 | SID104198389 | 1.06e5 | 1.03e5 | 1.57e5 | 1.90e5 | 7632 | inactive |
| Mtr4 | SID104183352 | 93385 | 1.13e5 | 82925 | 88235 | 6870 | inactive |
| Ctr1B + Poxm | SID104196037 | 1.08e5 | 1.21e5 | 87410 | 63260 | 7035 | inactive |
| Prosalpha7 | SID104187308 | 27005 | 22682 | 17060 | 15638 | 2265 | inactive |
| CG43367 | SID104188091 | 94710 | 1.16e5 | 2.18e5 | 1.45e5 | 8280 | inactive |
| CG43367 | SID104188093 | 1.71e5 | 1.26e5 | 2.20e5 | 1.66e5 | 11325 | inactive |

The listing, from the start:
| target | PubChem SID | induced reporter light, run 1, well a | induced reporter light, run 1, well b | control promoter light, run 1, well a | control promoter light, run 1, well b | uninduced reporter light, run 1, well a | Call |
| --- | --- | --- | --- | --- | --- | --- | --- |
| mRpL14 | SID104198389 | 1.06e5 | 1.03e5 | 1.57e5 | 1.90e5 | 7632 | inactive |
| Mtr4 | SID104183352 | 93385 | 1.13e5 | 82925 | 88235 | 6870 | inactive |
| Ctr1B + Poxm | SID104196037 | 1.08e5 | 1.21e5 | 87410 | 63260 | 7035 | inactive |
| Prosalpha7 | SID104187308 | 27005 | 22682 | 17060 | 15638 | 2265 | inactive |
| CG43367 | SID104188091 | 94710 | 1.16e5 | 2.18e5 | 1.45e5 | 8280 | inactive |
| CG43367 | SID104188093 | 1.71e5 | 1.26e5 | 2.20e5 | 1.66e5 | 11325 | inactive |
| CG43367 | SID104188101 | 1.81e5 | 1.23e5 | 2.21e5 | 1.72e5 | 10320 | inactive |
| CG34292 | SID104193599 | 1.69e5 | 1.44e5 | 1.66e5 | 1.59e5 | 15035 | inactive |
| mRpL11 | SID104195274 | 1.94e5 | 2.00e5 | 2.01e5 | 2.07e5 | 16270 | inactive |
| CG5335 | SID104186723 | 28950 | 33440 | 49385 | 55025 | 3120 | inactive |
| CG8117 | SID104199874 | 1.03e5 | 1.09e5 | 1.45e5 | 1.10e5 | 12630 | inactive |
| Hsc70-3 | SID104200045 | 63035 | 50505 | 80970 | 88460 | 5200 | inactive |
| Dgkepsilon | SID104187191 | 99145 | 1.09e5 | 72870 | 75290 | 7245 | inactive |
| CG7484 | SID104190645 | 1.60e5 | 1.45e5 | 1.35e5 | 1.48e5 | 5900 | inactive |
| hoe2 | SID104180251 | 1.83e5 | 1.64e5 | 1.61e5 | 1.72e5 | 11250 | inactive |
| TwdlO | SID104195835 | 1.44e5 | 1.60e5 | 1.78e5 | 1.86e5 | 14020 | inactive |
| CG32437 | SID104191552 | 1.24e5 | 99075 | 1.18e5 | 92820 | 6850 | inactive |
| C1GalTA | SID104183038 | 2.88e5 | 2.55e5 | 1.99e5 | 1.97e5 | 17710 | inactive |
| CG34160 | SID104180923 | 1.50e5 | 1.19e5 | 1.45e5 | 1.41e5 | 8955 | inactive |
| CG6974 | SID104195952 | 2.40e5 | 2.62e5 | 2.29e5 | 2.27e5 | 18640 | inactive |
| kud | SID104190878 | 2.85e5 | 2.70e5 | 2.62e5 | 2.15e5 | 8805 | active |
| CG8925 | SID104196247 | 1.96e5 | 2.11e5 | 1.69e5 | 2.01e5 | 15860 | inactive |
| CG8925 | SID104196248 | 1.55e5 | 1.75e5 | 1.44e5 | 1.26e5 | 13280 | inactive |
| CG8925 | SID104196249 | 1.70e5 | 1.87e5 | 1.67e5 | 1.95e5 | 15955 | inactive |
| Pcf11 | SID104185775 | 1.26e5 | 96905 | 51340 | 54145 | 6380 | inactive |
| SmB | SID104183229 | 49015 | 37475 | 38795 | 35905 | 2975 | inactive |
| IRSp53 | SID104190683 | 77220 | 77695 | 1.10e5 | 94365 | 4610 | inactive |
| Tektin-A | SID104181713 | 2.58e5 | 2.03e5 | 1.69e5 | 2.07e5 | 14630 | inactive |
| CG13501 | SID104183938 | 46850 | 38815 | 34640 | 39350 | 1565 | inactive |
| Xpd | SID104184458 | 2.09e5 | 1.84e5 | 1.86e5 | 2.18e5 | 17920 | inactive |
| eEF1beta | SID104187211 | 66770 | 81965 | 2.04e5 | 1.88e5 | 6180 | active |
| Mpcp2 | SID104191018 | 1.05e5 | 82945 | 1.52e5 | 1.34e5 | 4765 | inactive |
| Cds | SID104190730 | 98680 | 85885 | 56415 | 33935 | 8530 | inactive |
| CG6839 | SID104190515 | 97805 | 1.23e5 | 60500 | 81825 | 8070 | inactive |
| Acox3 | SID104183043 | 1.20e5 | 1.36e5 | 2.28e5 | 2.09e5 | 8105 | active |
| CG11892 | SID104194220 | 1.61e5 | 2.32e5 | 2.60e5 | 2.51e5 | 12325 | inactive |
| bcd | SID104192416 | 1.79e5 | 1.62e5 | 96840 | 82350 | 12195 | inactive |
| Mdr65 | SID104191012 | 3.51e5 | 2.05e5 | 2.67e5 | 2.44e5 | 11345 | inactive |
| M1BP | SID104196358 | 32495 | 22700 | 19860 | 17795 | 6140 | inactive |
| Tim23 | SID104201032 | 57365 | 59590 | 87215 | 78650 | 4775 | inactive |
| mdy | SID104181351 | 70835 | 60020 | 77220 | 55790 | 5300 | inactive |
| mdy | SID104182042 | 2.26e5 | 2.16e5 | 1.77e5 | 1.49e5 | 13950 | active |
| capt | SID104180468 | 1.00e5 | 76135 | 70700 | 57855 | 7240 | inactive |
| capt | SID104180598 | 1.04e5 | 87725 | 80460 | 66630 | 10235 | inactive |
| Grip163 | SID104190330 | 71500 | 69885 | 66345 | 67625 | 5635 | inactive |
| CG31789 | SID104181437 | 81775 | 81450 | 1.07e5 | 84405 | 7045 | inactive |
| mRpS10 | SID104195349 | 2.63e5 | 2.11e5 | 2.18e5 | 2.11e5 | 19180 | inactive |
| RpL6 | SID104194115 | 77115 | 82275 | 1.02e5 | 1.05e5 | 5145 | inactive |
| RpL6 | SID104201863 | – | – | – | – | – | active |
| Jhbp12 | SID104194413 | 1.64e5 | 1.88e5 | 2.47e5 | 1.92e5 | 13870 | inactive |
